Data source: PubChem BioAssay AID1259425 (University of Nebraska Medical Center, 2018)

- Assay: 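Compare each knockdown with KSR1 silencing using changes in marker transcripts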 (primary screen)
- System: HCT116 human colon cancer cells
- Reagent: siRNA pool against human genes, 50 nM siRNA
- Measured: 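After 50 nM siRNA pool, branched-DNA assay measures six marker transcripts per well, minus blank, normalised to the geometric mean of two housekeeping transcripts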
- Reading the numbers: BNIP3L mRNA: higher = more BNIP3L transcript after knockdown; NDRG1 mRNA: higher = more NDRG1 transcript after knockdown; BNIP3 mRNA: higher = more BNIP3 transcript after knockdown; ALDOC mRNA: higher = more ALDOC transcript after knockdown
This is an unselected part of about 14,000 deposited reagents. Not all columns of the deposit are shown. Not given: the time to read-out.

| BNIP3L mRNA, set 1 | NDRG1 mRNA, set 1 | BNIP3 mRNA, set 1 | ALDOC mRNA, set 1 | gene | PubChem SID |
| --- | --- | --- | --- | --- | --- |
| 0.308 | 0.183 | 0.242 | 0.0602 | RNASEH2C | SID364003825 |
| 0.128 | 0.166 | 0.251 | 0.0282 | SLC8B1 | SID364003188 |
| 0.0682 | 0.191 | 0.315 | 0.035 | DTNBP1 | SID364003779 |
| 0.0864 | 0.17 | 0.376 | 0.0191 | IL13RA1 | SID363992816 |
| 0.11 | 0.303 | 0.438 | 0.0244 | TRDN | SID363996918 |
| 0.13 | 0.0589 | 0.229 | 0.0293 | BRD9 | SID364002650 |
| 0.109 | 0.0933 | 0.222 | 0.0191 | UGT2B17 | SID363992374 |
| 0.081 | 0.284 | 0.304 | 0.0206 | SSX4 | SID363996530 |
| 0.121 | 0.0552 | 0.452 | 0.015 | KHDRBS1 | SID363997350 |
| 0.0589 | 0.181 | 0.329 | 0.0359 | SUSD6 | SID363999065 |
| 0.115 | 0.0952 | 0.31 | 0.00984 | STK32A | SID364004633 |
| 0.108 | 0.423 | 0.318 | 0.0473 | CAPN10 | SID364002127 |
| 0.109 | 0.505 | 0.32 | 0.0284 | MSX2 | SID363993627 |
| 0.111 | 0.435 | 0.4 | 0.0225 | ANGPT2 | SID363992439 |
| 0.0904 | 0.367 | 0.322 | 0.0376 | MAGEE1 | SID364001901 |
| 0.123 | 0.231 | 0.392 | 0.0176 | DYNC2I1 | SID364000739 |
| 0.331 | 0.208 | 0.395 | 0.0731 | EIF3M | SID363997176 |
| 0.0887 | 0.131 | 0.305 | 0.0221 | MAGI2 | SID363998214 |
| 0.163 | 0.319 | 0.603 | 0.102 | MYOM1 | SID363994866 |
| 0.0343 | 0.161 | 0.202 | 0.0317 | IL3 | SID363991906 |
| 0.144 | 0.322 | 0.27 | 0.0346 | NIPSNAP2 | SID363992742 |
| 0.122 | 0.273 | 0.478 | 0.0168 | CIB2 | SID363997196 |
| 0.18 | 0.391 | 0.462 | 0.0516 | MAPT | SID363996779 |
| 0.133 | 0.134 | 0.261 | 0.00402 | ZNF148 | SID364002254 |
| 0.102 | 0.197 | 0.221 | 0.00943 | PCDHB6 | SID364001266 |
| 0.094 | 0.227 | 0.425 | 0.154 | SLA | SID363997519 |
| 0.143 | 0.269 | 0.317 | 0.0385 | LGALS14 | SID364001492 |
| 0.133 | 0.334 | 0.291 | 0.0215 | DRC11 | SID364003007 |
| 0.164 | 0.109 | 0.319 | 0.012 | MYO10 | SID363998244 |
| 0.124 | 0.0467 | 0.217 | 0.0393 | SLC35B3 | SID363999743 |
| 0.057 | 0.16 | 0.271 | 0.0118 | SNX7 | SID363999766 |
| 0.247 | 0.378 | 0.382 | 0.107 | TAF13 | SID363996538 |
| 0.0873 | 0.109 | 0.507 | 0.0614 | SLC48A1 | SID364000574 |
| 0.162 | 0.17 | 0.258 | 0.00491 | UTP11 | SID363999814 |
| 0.132 | 0.654 | 0.248 | 0.0711 | PRND | SID363998294 |
| 0.0782 | 0.0863 | 0.255 | 0.033 | PDE2A | SID363993768 |
| 0.133 | 0.114 | 0.252 | 0.0198 | DYM | SID364000420 |
| 0.126 | 0.345 | 0.297 | 0.0857 | CAP2 | SID363997182 |
| 0.238 | 0.94 | 0.413 | 0.0489 | PGC | SID363993798 |
| 0.114 | 0.505 | 0.274 | 0.0843 | CPM | SID363993087 |
| 0.0734 | 0.37 | 0.429 | 0.0361 | RRAGB | SID363996910 |
| 0.049 | 0.0847 | 0.262 | 0.026 | UACA | SID364000700 |
| 0.0774 | 0.289 | 0.286 | 0.0181 | COL18A1 | SID364003373 |
| 0.088 | 0.257 | 0.282 | 0.0266 | UCHL1 | SID363995185 |
| 0.113 | 0.124 | 0.202 | 0.0181 | TMEM70 | SID364000596 |
| 0.141 | 0.382 | 0.409 | 0.0313 | EXOSC3 | SID363999819 |
| 0.089 | 0.0802 | 0.222 | 0.0287 | TAB2 | SID363999298 |
| 0.0993 | 0.0653 | 0.304 | 0.00854 | MAK | SID363996775 |
| 0.121 | 0.135 | 0.256 | 0.0126 | SPHK1 | SID364002261 |
| 0.167 | 0.157 | 0.317 | 0.0193 | JRKL | SID363994836 |

A few values from the list:
TRDN [SID363996918], BNIP3L mRNA, set 1: 0.11
Under “ALDOC mRNA, set 1”, TMEM70 [SID364000596] shows 0.0181
Entry of SLC48A1 [SID364000574] under “ALDOC mRNA, set 1”: 0.0614
BRD9 [SID364002650], NDRG1 mRNA, set 1 = 0.0589
Result of SSX4 [SID363996530] in “BNIP3 mRNA, set 1”: 0.304
UACA [SID364000700], BNIP3 mRNA, set 1: 0.262
